# Source: EP2161028B1, “Food product comprising dipeptides having antihypertensive properties” (Unilever N.V., priority 2008, dated 2011)
# At least one peptide structure holds a part that was inferred or is arguable (an end, a ring closure or a residue). Peptide text beside a SMILES is read from it.
# Tested on: ACE
# Experiment: ACE inhibition, HPLC-UV at-line assay with substrate HHL
# Assay type: biochemical
# Settings: substrate Hippuryl-His-Leu, mean, n=2
compound,measurement,setting,value
"CC(C)[C@H](N)C(=O)N[C@@H](Cc1c[nH]c2ccccc12)C(=O)O [VW, Val-Trp] (H-Val-Trp-OH)",residual ACE activity (in % of control),20 µM dipeptide,39.3 % of control
same,residual ACE activity (in % of control),200 µM dipeptide,19.45 % of control
